Laboratory results as given in patent US10596224B2 (Biosolution Co., Ltd, priority 2016, dated 2020).

Experiment: peptide synthesis
Conditions: whole synthesis

## PEPTIDE1{R.P.K.P.Q.Q.F.F.G.L.M.[am]}$$$$V2.0
  final purity (method not given): 85% or more

Strings that start with PEPTIDE1 are HELM notation: dots part the residues, brackets hold end groups and non-standard residues.
